# Values of other authors as cited in article PMC2747801 (European journal of pharmaceutical sciences : official …, 2009).
# Details: rat, in vivo; cited from earlier work
smiles,measurement,value
COc1cc2c(cc1OC)C(=O)C(CC1CCN(Cc3ccccc3)CC1)C2 (stereo not shown) [donepezil],logPS(obs),−1.50 mL/g/s
